Measured values as given in US20080311122A1, “Antagonists of Hmgb1 and/or Rage and Methods of Use Thereof” (Medimmune, LLC, priority 2005, published 2008).
No constants are given. Whether binding was seen depends on the method and setting. Some entries that bind do so weakly or less than the wild type.

Sequences of proteins named here, by UniProt entry; tags and fusion partners are left off. Residues count along the entry.
UniProt P63159: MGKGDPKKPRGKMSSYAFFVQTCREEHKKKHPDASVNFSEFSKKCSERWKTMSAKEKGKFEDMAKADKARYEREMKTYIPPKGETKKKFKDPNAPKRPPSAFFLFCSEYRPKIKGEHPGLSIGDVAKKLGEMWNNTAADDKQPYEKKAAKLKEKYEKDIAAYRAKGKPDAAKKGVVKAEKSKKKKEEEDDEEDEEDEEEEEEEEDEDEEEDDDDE
UniProt Q62151, residues 24-342: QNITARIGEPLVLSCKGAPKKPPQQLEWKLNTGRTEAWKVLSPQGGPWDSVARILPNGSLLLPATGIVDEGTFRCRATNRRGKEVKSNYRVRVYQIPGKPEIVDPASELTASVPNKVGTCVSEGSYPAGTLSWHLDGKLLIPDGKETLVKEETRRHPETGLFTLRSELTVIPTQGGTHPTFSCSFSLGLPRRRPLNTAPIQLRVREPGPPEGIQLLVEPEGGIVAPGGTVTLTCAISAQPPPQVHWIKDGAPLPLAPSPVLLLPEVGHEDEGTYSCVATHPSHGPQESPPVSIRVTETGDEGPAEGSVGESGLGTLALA
UniProt Q15109, residues 23-344: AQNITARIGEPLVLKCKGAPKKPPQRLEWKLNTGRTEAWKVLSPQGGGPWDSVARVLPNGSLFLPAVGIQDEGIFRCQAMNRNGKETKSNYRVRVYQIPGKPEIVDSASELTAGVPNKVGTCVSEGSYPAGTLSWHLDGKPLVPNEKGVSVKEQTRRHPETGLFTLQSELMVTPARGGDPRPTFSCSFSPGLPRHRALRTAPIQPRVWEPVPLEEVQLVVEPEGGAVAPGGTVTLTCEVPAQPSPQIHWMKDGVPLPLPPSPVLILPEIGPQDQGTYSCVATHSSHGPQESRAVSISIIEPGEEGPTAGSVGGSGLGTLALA
UniProt P10103, residues 2-215: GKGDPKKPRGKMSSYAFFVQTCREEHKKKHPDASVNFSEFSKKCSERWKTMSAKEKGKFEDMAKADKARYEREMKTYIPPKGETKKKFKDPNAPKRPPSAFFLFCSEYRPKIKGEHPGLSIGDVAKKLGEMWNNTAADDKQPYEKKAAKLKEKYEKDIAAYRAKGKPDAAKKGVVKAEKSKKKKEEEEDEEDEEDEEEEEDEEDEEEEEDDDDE

Experiments:
[1] = target: recombinant rat HMGB-1, Europium-labeled (rat) (UniProt P63159); test: inhibition of binding of Eu-labeled HMGB-1 to THP-1 cells
[2] = target: recombinant rat HMGB-1, Europium-labeled (rat) (UniProt P63159); test: inhibition of the binding of 2 nM Europium-labeled rat HMGB-1 to THP-1 cells, fluorescence at 615 nm
[3] = target: Mouse RAGE/Fc (mouse) (UniProt Q62151); test: ELISA, HMGB1 titrated on RAGE-Fc in the presence of 0.3 µM CpG-A (right panel)
[4] = target: Mouse RAGE/Fc (mouse) (UniProt Q62151); test: ELISA
[5] = target: Mouse RAGE/Fc (mouse) (UniProt Q62151); test: ELISA, HMGB1 titrated on RAGE-Fc in the presence of 0.03 µM CpG-A (right panel)
[6] = target: Mouse RAGE/Fc (mouse) (UniProt Q62151); test: ELISA on coated RAGE/Fc
[7] = target: Mouse RAGE/Fc (mouse) (UniProt Q62151); test: ELISA, coated RAGE/Fc, biotin labeled CpG-A detected
[8] = target: Mouse RAGE/Fc (mouse) (UniProt Q62151); test: ELISA, RAGE/Fc coated on the plate, biotin labeled CpG-A in complex with HMGB1, detected with HRP streptavidin (left panel)
[9] = target: Mouse RAGE/Fc (mouse) (UniProt Q62151); test: ELISA, HMGB1 titrated on RAGE-Fc in the presence of 0.003 µM CpG-A (right panel)
[10] = target: Mouse RAGE/Fc (mouse) (UniProt Q62151); test: ELISA on RAGE-Fc

Measured: binding

soluble human RAGE-Fc (from UniProt Q15109 23-344) (Fc fusion)
binds: [1] | [2]

HMGB1/CpG-A complex (from UniProt P10103 2-215)
not listed: [1] | [2] | [10]
binds: all other assays above

HMG1 purified from bovine (calf) thymus (from UniProt P10103 2-215)
binds: [4] | [10]
